Experimental data as given in patent US20210393752A1, “PEPTIDES, COMPOSITIONS AND VACCINES FOR TREATMENT OF MICROSATELLITE INSTABLITY HYPERMUTATED TUMORS AND METHODS OF USE THEREOF” (Icahn School of Medicine at Mount Sinai, priority 2018, published 2021).

system: MHC-I complexes of HCT116 cancer cell line; assay: MS/MS of peptides eluted from MHC-I complexes, PepQuery peptide spectrum match; parameters: species or system human; details: MSI-H colon cancer

Row | Sequence | presentation by MHC-I (epitope eluted and identified)
1 | WMKSWSLRDP (listed as Homo sapiens) | eluted from MHC-I and identified by MS/MS
2 | YPKPFAGLFP (listed as Homo sapiens) | eluted from MHC-I and identified by MS/MS
3 | SLEPWIPYLH (listed as Homo sapiens) | eluted from MHC-I and identified by MS/MS
4 | KQNRPFFLPVY (listed as Homo sapiens) | eluted from MHC-I and identified by MS/MS
